According to patent US20230295066A1, “Process for the Efficient Preparation of (Bio)-Alkanediols” (Symrise AG, priority 2020, published 2023):

Assay: Sensory properties of lipid/alkanediol blends assessed by untrained panellists
Type: in vivo
[1] = CCT (neutral oil), difference w and w/o
[2] = Cacao butter, difference w and w/o
[3] = Grapeseed Oil, difference w and w/o
[4] = Octocrylene, difference w and w/o
[5] = Olive Oil, difference w and w/o
[6] = Argan Oil, difference w and w/o
[7] = Argan Oil, difference with (w) and without (w/o) alkanediol
[8] = Avocado Oil, difference w and w/o
[9] = Helianthus Annuus (Sunflower) Seed Oil, difference w and w/o

| SMILES | Absorption, Δ [1] | Fatty/greasy Skin Feel, Δ [1] | Spreading, Δ [1] | Absorption, Δ [2] | Fatty/greasy Skin Feel, Δ [2] | Spreading, Δ [2] | Absorption, Δ [3] | Fatty/greasy Skin Feel, Δ [3] | Spreading, Δ [3] | Absorption, Δ [4] | Fatty/greasy Skin Feel, Δ [4] | Spreading, Δ [4] | Absorption, Δ [5] | Fatty/greasy Skin Feel, Δ [5] | Spreading, Δ [5] | Absorption, Δ [6] | Fatty/greasy Skin Feel, Δ [6] | Spreading, Δ [7] | Absorption, Δ [8] | Fatty/greasy Skin Feel, Δ [8] | other results |
| --- | --- | --- | --- | --- | --- | --- | --- | --- | --- | --- | --- | --- | --- | --- | --- | --- | --- | --- | --- | --- | --- |
| CCCC(O)C(C)O (stereo not drawn) [2,3-C6, 2,3-hexanediol] | 1.8 | 1.4 | 1.4 | – | – | – | – | – | – | – | – | – | – | – | – | – | – | – | – | – | – |
| CCCCC(O)CO (stereo not drawn) [1,2-C6, 1,2-hexanediol] | 1.8 | 1.4 | 1.8 | – | – | – | – | – | – | – | – | – | – | – | – | – | – | – | – | – | – |
| CCCCC(O)C(C)O (stereo not drawn) [2,3-C7, 2,3-heptanediol] | 0.3 | −0.2 | 1.7 | 0.4 | 0.8 | 1.2 | 0.8 | 1.6 | 1.6 | 0.5 | 1.0 | 2.5 | 2 | 1.6 | 1.8 | – | – | – | – | – | – |
| CCCCCCC(O)CO (stereo not drawn) [1,2-C8, 1,2-octanediol] | – | – | – | – | – | – | 1 | 1.4 | 2 | 0.5 | 0.5 | 2.5 | 1.4 | 1.2 | 2 | 1.2 | 1.4 | 1.8 | 1.2 | 0.8 | Spreading, Δ [8]: 2; Absorption, Δ [9]: 1.3; Fatty/greasy Skin Feel, Δ [9]: 1.8; Spreading, Δ [9]: 3 |
| CCCCCC(O)CO (stereo not drawn) [1,2-C7, 1,2-heptanediol] | 0.6 | 0.3 | 1.5 | 0 | 1.2 | 2 | 0.2 | 2 | 1.8 | 0.5 | 0.5 | 2.5 | 1.6 | 1.8 | 1.8 | – | – | – | – | – | – |
| CCCCCC(O)C(C)O (stereo not drawn) [2,3-C8, 2,3-octanediol] | – | – | – | – | – | – | 0.2 | 1.4 | 0.8 | 1.5 | 1.0 | 2.5 | 1.4 | 1.4 | 0.8 | 1.6 | 1.6 | 1.4 | 1.4 | 1 | Spreading, Δ [8]: 1.2; Absorption, Δ [9]: −0.1; Fatty/greasy Skin Feel, Δ [9]: 0.8; Spreading, Δ [9]: 2.2 |

The amount applied is not stated for every result.
